# The list shows a part of the results.
# B1: SspB A3vp1 (Streptococcus gordonii), Q54186 (protein)
# chain: MTNEADYQAKLAAYQTELARVQKANADAKATYEKAVEDNKAKNAAIKAENEEIKQRNAVAKTDYEAKLAKYEADLAKYKKEFAAYTAALAEAESKKKQDGYLSEPRSQSLNFKSEPNAIRTIDSSVHQYGQQELDALVKSWGISPTNPDRKKSRAYSYFNAINSNNTYAKLVLEKDKPVDVTYTGLKNSSFNGKKISKVVYTYTLKETGFNDGTKMTMFASSDPTVTAWYNDYFTSTNINVKVKFYDEEGQLMNLTGGLVNFSSLNRGNGSGAIDKDAIESVRNFNGRYIPISGSSIKIHENNSAYADSSNAEKSLGARWNTSEWDTTSSPNNWYGAIVGEITQSEISFNMASSKSGNIWFAFNSNINAIGVPTKPVAPTAPTQPMYETEKPLEPAPVAPSYENEPTPPVKTPDQPEPSKPAAALEHHHHHH
# Columns and labels:
# Experiment in all cases: glycan array binding signal (z-score within array); higher = stronger binding
# Conditions in all cases: glycan notation: IUPAC condensed, linker removed
# [1] = biological target: GlcNAc(b1-2)[GlcNAc(b1-4)]Man(a1-3)[GlcNAc(b1-4)][GlcNAc(b1-2)[GlcNAc(b1-6)]Man(a1-6)]Man(b1-4)GlcNAc(b1-4)GlcNAc
# Procedure, shortened: (§1)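 From the Consortium for Functional Glycomics database, 3228 arrays were curated, keeping only those whose protein sequence was available. Binding is given as a within-array Z-score averaged across arrays sharing a protein sequence and across linkers. Negative Z-scores can be read as non-binding.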
# [2] = biological target: GlcNAc(b1-2)[GlcNAc(b1-4)]Man(a1-3)[GlcNAc(b1-4)][GlcNAc(b1-2)[GlcNAc(b1-6)]Man(a1-6)]Man(b1-4)GlcNAc(b1-4)[Fuc(a1-6)]GlcNAc
# Procedure, shortened: as §1
# [3] = biological target: GlcNAc(b1-2)[GlcNAc(b1-6)]Man(a1-6)[GlcNAc(b1-2)Man(a1-3)]Man(b1-4)GlcNAc(b1-4)GlcNAc
# Procedure, shortened: as §1
# [4] = biological target: GlcNAc(b1-2)[GlcNAc(b1-6)]Man(a1-6)[GlcNAc(b1-2)Man(a1-3)]Man(b1-4)GlcNAc(b1-4)[Fuc(a1-6)]GlcNAc
# Procedure, shortened: as §1
# [5] = biological target: GlcNAc(b1-2)[GlcNAc(b1-6)]Man(a1-6)[GlcNAc(b1-4)][GlcNAc(b1-2)Man(a1-3)]Man(b1-4)GlcNAc(b1-4)GlcNAc
# Procedure, shortened: as §1
# [6] = biological target: GlcNAc(b1-3)Fuc
# Procedure, shortened: as §1
# [7] = biological target: GlcNAc(b1-3)Gal
# Procedure, shortened: as §1
# [8] = biological target: GlcNAc(b1-3)Gal(b1-3)GalNAc
# Procedure, shortened: as §1
# [9] = biological target: GlcNAc(b1-3)Gal(b1-4)Glc
# Procedure, shortened: as §1
# [10] = biological target: GlcNAc(b1-3)Gal(b1-4)GlcNAc
# Procedure, shortened: as §1
# [11] = biological target: GlcNAc(b1-3)Gal(b1-4)GlcNAc(b1-2)Man(a1-3)[GlcNAc(b1-3)Gal(b1-4)GlcNAc(b1-2)Man(a1-6)]Man(b1-4)GlcNAc(b1-4)GlcNAc
# Procedure, shortened: as §1
# [12] = biological target: GlcNAc(b1-3)Gal(b1-4)GlcNAc(b1-2)Man(a1-3)[GlcNAc(b1-3)Gal(b1-4)GlcNAc(b1-2)Man(a1-6)]Man(b1-4)GlcNAc(b1-4)[Fuc(a1-6)]GlcNAc
# Procedure, shortened: as §1
# [13] = biological target: GlcNAc(b1-3)Gal(b1-4)GlcNAc(b1-2)[GlcNAc(b1-3)Gal(b1-4)GlcNAc(b1-6)]Man(a1-6)[GlcNAc(b1-3)Gal(b1-4)GlcNAc(b1-2)Man(a1-3)]Man(b1-4)GlcNAc(b1-4)GlcNAc
# Procedure, shortened: as §1
# [14] = biological target: GlcNAc(b1-3)Gal(b1-4)GlcNAc(b1-3)Gal(b1-4)GlcNAc
# Procedure, shortened: as §1
# [15] = biological target: GlcNAc(b1-3)Gal(b1-4)GlcNAc(b1-3)Gal(b1-4)GlcNAc(b1-2)Man(a1-3)[GlcNAc(b1-3)Gal(b1-4)GlcNAc(b1-3)Gal(b1-4)GlcNAc(b1-2)Man(a1-6)]Man(b1-4)GlcNAc(b1-4)GlcNAc
# Procedure, shortened: as §1
# [16] = biological target: GlcNAc(b1-3)Gal(b1-4)GlcNAc(b1-3)Gal(b1-4)GlcNAc(b1-2)Man(a1-3)[GlcNAc(b1-3)Gal(b1-4)GlcNAc(b1-3)Gal(b1-4)GlcNAc(b1-2)Man(a1-6)]Man(b1-4)GlcNAc(b1-4)[Fuc(a1-6)]GlcNAc
# Procedure, shortened: as §1
# [17] = biological target: GlcNAc(b1-3)Gal(b1-4)GlcNAc(b1-3)Gal(b1-4)GlcNAc(b1-2)[GlcNAc(b1-3)Gal(b1-4)GlcNAc(b1-3)Gal(b1-4)GlcNAc(b1-6)]Man(a1-6)[GlcNAc(b1-3)Gal(b1-4)GlcNAc(b1-3)Gal(b1-4)GlcNAc(b1-2)Man(a1-3)]Man(b1-4)GlcNAc(b1-4)[Fuc(a1-6)]GlcNAc
# Procedure, shortened: as §1
# [18] = biological target: GlcNAc(b1-3)Gal(b1-4)GlcNAc(b1-3)Gal(b1-4)GlcNAc(b1-3)Gal(b1-4)GlcNAc(b1-2)Man(a1-3)[GlcNAc(b1-3)Gal(b1-4)GlcNAc(b1-3)Gal(b1-4)GlcNAc(b1-3)Gal(b1-4)GlcNAc(b1-2)Man(a1-6)]Man(b1-4)GlcNAc(b1-4)GlcNAc
# Procedure, shortened: as §1
# [19] = biological target: GlcNAc(b1-3)Gal(b1-4)GlcNAc(b1-3)Gal(b1-4)GlcNAc(b1-3)Gal(b1-4)GlcNAc(b1-2)Man(a1-3)[GlcNAc(b1-3)Gal(b1-4)GlcNAc(b1-3)Gal(b1-4)GlcNAc(b1-3)Gal(b1-4)GlcNAc(b1-2)Man(a1-6)]Man(b1-4)GlcNAc(b1-4)[Fuc(a1-6)]GlcNAc
# Procedure, shortened: as §1
# [20] = biological target: GlcNAc(b1-3)Gal(b1-4)GlcNAc(b1-3)Gal(b1-4)GlcNAc(b1-3)Gal(b1-4)GlcNAc(b1-2)[GlcNAc(b1-3)Gal(b1-4)GlcNAc(b1-3)Gal(b1-4)GlcNAc(b1-3)Gal(b1-4)GlcNAc(b1-6)]Man(a1-6)[GlcNAc(b1-3)Gal(b1-4)GlcNAc(b1-3)Gal(b1-4)GlcNAc(b1-3)Gal(b1-4)GlcNAc(b1-2)Man(a1-3)]Man(b1-4)GlcNAc(b1-4)[Fuc(a1-6)]GlcNAc
# Procedure, shortened: as §1
# [21] = biological target: GlcNAc(b1-3)Gal(b1-4)GlcNAc(b1-3)Gal(b1-4)GlcNAc(b1-3)Gal(b1-4)GlcNAc(b1-3)Gal(b1-4)GlcNAc(b1-2)Man(a1-3)[GlcNAc(b1-3)Gal(b1-4)GlcNAc(b1-3)Gal(b1-4)GlcNAc(b1-3)Gal(b1-4)GlcNAc(b1-3)Gal(b1-4)GlcNAc(b1-2)Man(a1-6)]Man(b1-4)GlcNAc(b1-4)GlcNAc
# Procedure, shortened: as §1
# [22] = biological target: GlcNAc(b1-3)Gal(b1-4)GlcNAc(b1-3)Gal(b1-4)GlcNAc(b1-3)Gal(b1-4)GlcNAc(b1-3)Gal(b1-4)GlcNAc(b1-2)Man(a1-3)[GlcNAc(b1-3)Gal(b1-4)GlcNAc(b1-3)Gal(b1-4)GlcNAc(b1-3)Gal(b1-4)GlcNAc(b1-3)Gal(b1-4)GlcNAc(b1-2)Man(a1-6)]Man(b1-4)GlcNAc(b1-4)[Fuc(a1-6)]GlcNAc
# Procedure, shortened: as §1
# [23] = biological target: GlcNAc(b1-3)Gal(b1-4)GlcNAc(b1-3)Gal(b1-4)GlcNAc(b1-3)Gal(b1-4)GlcNAc(b1-3)Gal(b1-4)GlcNAc(b1-2)[GlcNAc(b1-3)Gal(b1-4)GlcNAc(b1-3)Gal(b1-4)GlcNAc(b1-3)Gal(b1-4)GlcNAc(b1-3)Gal(b1-4)GlcNAc(b1-6)]Man(a1-6)[GlcNAc(b1-3)Gal(b1-4)GlcNAc(b1-3)Gal(b1-4)GlcNAc(b1-3)Gal(b1-4)GlcNAc(b1-3)Gal(b1-4)GlcNAc(b1-2)Man(a1-3)]Man(b1-4)GlcNAc(b1-4)[Fuc(a1-6)]GlcNAc
# Procedure, shortened: as §1
# [24] = biological target: GlcNAc(b1-3)Gal(b1-4)GlcNAc(b1-3)Gal(b1-4)GlcNAc(b1-3)GalNAc
# Procedure, shortened: as §1
# [25] = biological target: GlcNAc(b1-3)Gal(b1-4)GlcNAc(b1-3)GalNAc
# Procedure, shortened: as §1
# [26] = biological target: GlcNAc(b1-3)Gal(b1-4)GlcNAc(b1-3)[GlcNAc(b1-3)Gal(b1-4)GlcNAc(b1-3)]GalNAc
# Procedure, shortened: as §1
# [27] = biological target: GlcNAc(b1-3)Gal(b1-4)GlcNAc(b1-6)[Gal(b1-3)]GalNAc
# Procedure, shortened: as §1
# [28] = biological target: GlcNAc(b1-3)Gal(b1-4)GlcNAc(b1-6)[GlcNAc(b1-3)Gal(b1-3)]GalNAc
# Procedure, shortened: as §1
# [29] = biological target: GlcNAc(b1-3)Gal(b1-4)GlcNAc(b1-6)[GlcNAc(b1-3)]Gal(b1-4)GlcNAc
# Procedure, shortened: as §1
# [30] = biological target: GlcNAc(b1-3)GalNAc
# Procedure, shortened: as §1
# [31] = biological target: GlcNAc(b1-3)Man
# Procedure, shortened: as §1
# [32] = biological target: GlcNAc(b1-3)[GlcNAc(b1-4)][GlcNAc(b1-6)]GlcNAc
# Procedure, shortened: as §1
# [33] = biological target: GlcNAc(b1-3)[GlcNAc(b1-6)]Gal(b1-4)GlcNAc
# Procedure, shortened: as §1
# [34] = biological target: GlcNAc(b1-3)[GlcNAc(b1-6)]GalNAc
# Procedure, shortened: as §1
# [35] = biological target: GlcNAc(b1-4)Gal(b1-4)GlcNAc
# Procedure, shortened: as §1
# [36] = biological target: GlcNAc(b1-4)GlcNAc
# Procedure, shortened: as §1
# [37] = biological target: GlcNAc(b1-4)GlcNAc(b1-4)GlcNAc
# Procedure, shortened: as §1
# [38] = biological target: GlcNAc(b1-4)GlcNAc(b1-4)GlcNAc(b1-4)GlcNAc(b1-4)GlcNAc
# Procedure, shortened: as §1
binder,measurement,setting,value
B1,glycan array binding signal (z-score),[1],-0.574
same,glycan array binding signal (z-score),[2],-0.341
same,glycan array binding signal (z-score),[3],-0.001
same,glycan array binding signal (z-score),[4],0.007
same,glycan array binding signal (z-score),[5],-0.233
same,glycan array binding signal (z-score),[6],-0.426
same,glycan array binding signal (z-score),[7],-1.12
same,glycan array binding signal (z-score),[8],0.022
same,glycan array binding signal (z-score),[9],-1.18
same,glycan array binding signal (z-score),[10],-0.345
same,glycan array binding signal (z-score),[11],0.452
same,glycan array binding signal (z-score),[12],0.327
same,glycan array binding signal (z-score),[13],0.885
same,glycan array binding signal (z-score),[14],-0.627
same,glycan array binding signal (z-score),[15],0.661
same,glycan array binding signal (z-score),[16],1.62
same,glycan array binding signal (z-score),[17],0.956
same,glycan array binding signal (z-score),[18],0.656
same,glycan array binding signal (z-score),[19],1.92
same,glycan array binding signal (z-score),[20],-0.133
same,glycan array binding signal (z-score),[21],1.28
same,glycan array binding signal (z-score),[22],1.69
same,glycan array binding signal (z-score),[23],0.521
same,glycan array binding signal (z-score),[24],-0.75
same,glycan array binding signal (z-score),[25],-1.3
same,glycan array binding signal (z-score),[26],-0.753
same,glycan array binding signal (z-score),[27],0.02
same,glycan array binding signal (z-score),[28],-0.219
same,glycan array binding signal (z-score),[29],-0.22
same,glycan array binding signal (z-score),[30],-0.544
same,glycan array binding signal (z-score),[31],-0.688
same,glycan array binding signal (z-score),[32],-0.608
same,glycan array binding signal (z-score),[33],-0.062
same,glycan array binding signal (z-score),[34],-0.612
same,glycan array binding signal (z-score),[35],0.043
same,glycan array binding signal (z-score),[36],-0.933
same,glycan array binding signal (z-score),[37],-1.14
same,glycan array binding signal (z-score),[38],-0.741

# A stretch taken from the entries so far:
binder,measurement,setting,value
B1,glycan array binding signal (z-score),[36],-0.933
same,glycan array binding signal (z-score),[37],-1.14
same,glycan array binding signal (z-score),[38],-0.741

# Reference: the supplement of paper PMC8728848
